Test results reported in the supplement of paper PMC10849652.
The other results are listed elsewhere or left out.

Amino acid sequences for entries named in this document (tags omitted). A change or cut given only in a name is not applied to a line headed by its entry.
UniProt P23921: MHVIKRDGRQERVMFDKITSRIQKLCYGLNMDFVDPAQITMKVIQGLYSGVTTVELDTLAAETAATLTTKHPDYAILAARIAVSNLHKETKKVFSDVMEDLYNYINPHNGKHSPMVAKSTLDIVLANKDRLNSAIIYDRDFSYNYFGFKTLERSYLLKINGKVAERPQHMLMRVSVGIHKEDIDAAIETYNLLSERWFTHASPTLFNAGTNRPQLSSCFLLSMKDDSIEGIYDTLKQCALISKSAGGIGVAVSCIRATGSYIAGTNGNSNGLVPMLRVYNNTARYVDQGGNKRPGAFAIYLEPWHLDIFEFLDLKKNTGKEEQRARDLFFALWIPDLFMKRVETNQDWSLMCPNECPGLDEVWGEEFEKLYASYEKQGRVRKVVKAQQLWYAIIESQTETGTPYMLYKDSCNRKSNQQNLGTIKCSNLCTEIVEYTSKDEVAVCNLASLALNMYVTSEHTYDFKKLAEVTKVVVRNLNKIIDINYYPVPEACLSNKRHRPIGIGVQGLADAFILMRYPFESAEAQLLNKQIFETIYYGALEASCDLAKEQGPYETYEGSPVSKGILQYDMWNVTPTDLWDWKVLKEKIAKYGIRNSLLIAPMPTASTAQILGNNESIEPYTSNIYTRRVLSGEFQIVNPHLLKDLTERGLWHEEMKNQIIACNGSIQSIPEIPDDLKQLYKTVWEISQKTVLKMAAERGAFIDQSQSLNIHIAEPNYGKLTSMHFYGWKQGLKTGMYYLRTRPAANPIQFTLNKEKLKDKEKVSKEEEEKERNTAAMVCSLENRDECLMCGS
UniProt Q9H633: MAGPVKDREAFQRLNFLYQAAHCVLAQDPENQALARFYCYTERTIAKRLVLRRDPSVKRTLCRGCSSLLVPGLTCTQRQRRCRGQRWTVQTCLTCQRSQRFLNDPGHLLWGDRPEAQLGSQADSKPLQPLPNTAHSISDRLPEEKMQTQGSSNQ
UniProt Q15050: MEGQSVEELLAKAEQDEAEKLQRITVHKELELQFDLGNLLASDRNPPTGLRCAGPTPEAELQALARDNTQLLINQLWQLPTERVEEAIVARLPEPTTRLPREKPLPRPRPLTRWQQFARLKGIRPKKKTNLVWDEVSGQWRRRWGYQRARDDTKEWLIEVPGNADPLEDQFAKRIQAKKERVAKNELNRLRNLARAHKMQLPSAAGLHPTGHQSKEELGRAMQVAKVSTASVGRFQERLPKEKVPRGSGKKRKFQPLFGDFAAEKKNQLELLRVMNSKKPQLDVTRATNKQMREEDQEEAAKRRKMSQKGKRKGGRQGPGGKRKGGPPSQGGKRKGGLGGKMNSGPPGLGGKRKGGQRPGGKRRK
UniProt Q14684: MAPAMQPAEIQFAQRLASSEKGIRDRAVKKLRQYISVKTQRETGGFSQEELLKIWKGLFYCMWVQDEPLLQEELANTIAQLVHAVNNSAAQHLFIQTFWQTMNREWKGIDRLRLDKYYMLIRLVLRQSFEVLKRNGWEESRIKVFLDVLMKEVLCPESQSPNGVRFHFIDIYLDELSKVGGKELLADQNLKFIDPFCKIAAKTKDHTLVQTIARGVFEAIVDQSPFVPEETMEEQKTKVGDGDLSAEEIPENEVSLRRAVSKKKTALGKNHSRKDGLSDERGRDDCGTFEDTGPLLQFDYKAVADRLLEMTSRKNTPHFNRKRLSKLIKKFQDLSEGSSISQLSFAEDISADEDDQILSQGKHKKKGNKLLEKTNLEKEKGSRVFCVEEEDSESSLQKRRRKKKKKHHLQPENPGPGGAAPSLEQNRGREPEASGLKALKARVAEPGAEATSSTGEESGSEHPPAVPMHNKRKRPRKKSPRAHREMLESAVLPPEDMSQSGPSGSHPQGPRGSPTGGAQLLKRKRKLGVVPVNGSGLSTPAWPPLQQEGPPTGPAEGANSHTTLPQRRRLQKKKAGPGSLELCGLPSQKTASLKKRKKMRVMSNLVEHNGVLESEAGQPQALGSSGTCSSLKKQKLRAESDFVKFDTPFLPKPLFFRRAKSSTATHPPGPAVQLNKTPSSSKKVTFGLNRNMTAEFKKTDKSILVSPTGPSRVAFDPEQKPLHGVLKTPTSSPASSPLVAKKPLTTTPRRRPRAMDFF
UniProt P31949: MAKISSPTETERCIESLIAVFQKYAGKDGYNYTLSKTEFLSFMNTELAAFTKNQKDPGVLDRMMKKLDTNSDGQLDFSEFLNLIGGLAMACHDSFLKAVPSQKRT
UniProt Q96DX4: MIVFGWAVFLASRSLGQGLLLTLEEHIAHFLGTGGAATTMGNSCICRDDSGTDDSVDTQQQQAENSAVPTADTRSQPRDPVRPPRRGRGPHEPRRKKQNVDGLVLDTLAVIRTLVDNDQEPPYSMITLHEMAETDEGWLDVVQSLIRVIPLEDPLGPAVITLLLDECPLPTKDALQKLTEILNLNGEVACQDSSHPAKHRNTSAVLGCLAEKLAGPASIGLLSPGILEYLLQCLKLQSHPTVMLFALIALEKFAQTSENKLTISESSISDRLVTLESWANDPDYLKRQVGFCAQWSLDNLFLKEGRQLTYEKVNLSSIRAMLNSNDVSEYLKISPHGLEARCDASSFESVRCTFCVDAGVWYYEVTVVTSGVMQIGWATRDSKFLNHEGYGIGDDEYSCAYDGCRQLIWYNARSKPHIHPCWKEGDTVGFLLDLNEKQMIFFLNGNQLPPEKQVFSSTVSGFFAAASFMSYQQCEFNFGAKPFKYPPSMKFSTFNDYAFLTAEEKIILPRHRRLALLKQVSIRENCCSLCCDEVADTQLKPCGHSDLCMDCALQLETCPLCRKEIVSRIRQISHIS
UniProt Q9NQG5: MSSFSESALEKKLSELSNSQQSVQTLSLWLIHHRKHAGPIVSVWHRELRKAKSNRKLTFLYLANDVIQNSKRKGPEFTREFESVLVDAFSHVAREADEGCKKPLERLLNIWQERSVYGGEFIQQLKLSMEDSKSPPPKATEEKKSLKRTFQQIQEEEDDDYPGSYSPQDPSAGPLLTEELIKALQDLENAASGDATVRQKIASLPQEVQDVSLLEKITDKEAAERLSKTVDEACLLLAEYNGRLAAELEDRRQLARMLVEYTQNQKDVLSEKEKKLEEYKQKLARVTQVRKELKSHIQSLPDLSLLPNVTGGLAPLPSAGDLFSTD
UniProt Q6NW29: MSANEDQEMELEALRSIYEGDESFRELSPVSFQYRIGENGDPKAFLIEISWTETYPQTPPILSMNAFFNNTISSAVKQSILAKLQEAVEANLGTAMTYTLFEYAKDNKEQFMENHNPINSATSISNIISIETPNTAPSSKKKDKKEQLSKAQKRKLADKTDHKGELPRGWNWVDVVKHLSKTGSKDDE

What was measured:
Assay in all cases: log2 fold change, soluble protein after heating vs DMSO (PISA); higher = thermal stabilisation; K562 lysate, 10 uM; active = over 0.2 and 3.5 SD of the protein, either way, in both replicates (recomputed)
[1] = compound: C#Cc1cccc(Nc2ncnc3cc(OCCOC)c(OCCOC)cc23)c1 [erlotinib]
Summary of the method: (§1)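 Values give the log-two fold change in thermal stability against solvent controls, from duplicates. Crude K562 extract at 1 mg/mL protein, made by dounce homogenisation in PBS pH 7.4 with 1 mM MgCl2, was treated with 10 μM compound for 30 min. After 3 min heating across 48°C-58°C, aliquots were pooled, adjusted to 0.5% NP-40 at 4°C and centrifuged at 21,000xg for 90 min. The supernatant was measured by TMTpro 16plex LC-MS/MS with channel sums equalised.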

[2] = compound: C/C(=N\NC(=O)C1=CC(=CC=C1)S(=O)(=O)N2CCOCC2)/C3=C(C=CC(=C3)Cl)O
Summary of the method: as §1

[3] = compound: C1=CC(=CC=C1C2=NC3=C(N2)C=C(C=C3)C(=O)N)OC4=CC=C(C=C4)Cl
Summary of the method: as §1

[4] = compound: C1=CC2=C(C=CC(=C2)/C=C\3/C(=O)NC(=NCC4=CC=CS4)S3)N=C1
Summary of the method: as §1

[5] = compound: C1=CC2=NC=CN=C2C=C1/C=C/3\C(=O)NC(=O)S3
Summary of the method: as §1

[6] = compound: C1=CC=C(C=C1)C2=NC(=C(N2)C3=CC=NC=C3)C4=CC(=C(C=C4)Cl)O
Summary of the method: as §1

[7] = compound: C1=CC=C2C(=C1)C3=NNC4=CC=CC(=C43)C2=O
Summary of the method: as §1

[8] = compound: C1CCN(C1)C(=O)NC2=CC=CC(=C2)NC3=NC=C(C(=N3)NCCC4=CN=CN4)Br
Summary of the method: as §1

[9] = compound: C1CN(CCC1(CC2=CC=C(C=C2)Cl)N)C3=NC=NC4=C3C=CN4
Summary of the method: as §1

[10] = compound: C1COCCN1CCN2C3=CC=CC=C3N=C2NC(=O)C4=CC(=CC=C4)[N+](=O)[O-] [IRAK-1-4 Inhibitor I]
Summary of the method: as §1

[11] = compound: C=CC(=O)N1CCC[C@@H](n2nc(-c3ccc(Oc4ccccc4)cc3)c3c(N)ncnc32)C1 [ibrutinib]
Summary of the method: as §1

[12] = compound: CC(=O)c1cnc2ccc(-c3cc(Cl)c(O)c(Cl)c3)nc2c1N[C@H]1CC[C@H](CN(C)C)CC1
Summary of the method: as §1

[13] = compound: CC(C)(C)Cn1c(N)nc2ccc(-c3[nH]c(C(C)(C)C)nc3-c3ccc(F)cc3)nc21 [ralimetinib]
Summary of the method: as §1

[14] = compound: CC(C)(O)CC(=O)NCCn1ccc2ncnc(Nc3ccc(Oc4cccc(C(F)(F)F)c4)c(Cl)c3)c21
Summary of the method: as §1

[15] = compound: CC(C)C1=C2N=C(C=C(N2N=C1)NCC3=CC=CC=C3)NCCCCCCN
Summary of the method: as §1

[16] = compound: CC1=C(C(CC(=O)N1)C2=CC=C(C=C2)C(F)(F)F)C(=O)NC3=C(C=C4C(=C3)C=NN4)F
Summary of the method: as §1

[17] = compound: CC1=C(C2=C(C=C1)C(=O)C3=CC=CC=C3N2CCCN)C
Summary of the method: as §1

[18] = compound: CC1=C(C=C(C=C1)NC(=O)C2=CC(=CC=C2)C(C)(C)C#N)NC3=CC4=C(C=C3)N=CN(C4=O)C
Summary of the method: as §1

[19] = compound: CC1=C(C=C(C=C1)NC(=O)C2=CC(=CC=C2)N(C)C)NC(=O)C3=CC=C(C=C3)O
Summary of the method: as §1

[20] = compound: CC1=CC=C(C=C1)SC2=C3C=C(SC3=CN=C2)C(=O)N
Summary of the method: as §1

Measured: log2 fold change

RRM1 (UniProt P23921)
inactive: [1] 0.018 | [2] -0.019 | [3] 0.007 | [4] 0.025 | [5] 0.029 | [6] -0.01 | [7] -0.043 | [8] -0.046 | [9] -0.022 | [10] 0.021 | [11] 0.025 | [12] 0 | [13] 0.005 | [14] -0.01 | [15] 0.022 | [16] 0 | [17] -0.033 | [18] -0.009 | [19] 0.024 | [20] 0.016

RPL37A (UniProt P61513)
inactive: [1] -0.012 | [2] -0.067 | [3] -0.006 | [4] -0.011 | [5] -0.03 | [6] 0.03 | [7] 0.064 | [8] 0.039 | [9] -0.035 | [10] -0.023 | [11] -0.005 | [12] 0.002 | [13] -0.041 | [14] 0.03 | [15] -0.009 | [16] -0.021 | [17] -0.032 | [18] 0.038 | [19] 0.004 | [20] 0.051

RPP21 isoform 4 (UniProt Q9H633)
inactive: [1] -0.049 | [2] 0.029 | [3] -0.063 | [4] 0.004 | [5] -0.032 | [6] 0.053 | [7] -0.064 | [8] 0.02 | [9] 0.017 | [10] -0.016 | [11] 0.018 | [12] -0.119 | [13] -0.018 | [14] 0.008 | [15] 0.056 | [16] 0.094 | [17] -0.03 | [18] 0.136 | [19] -0.055 | [20] -0.036

RRS1 (UniProt Q15050)
inactive: [1] -0.013 | [2] -0.103 | [3] -0.035 | [4] -0.016 | [5] -0.054 | [6] 0.007 | [7] 0.037 | [8] 0.034 | [9] -0.015 | [10] -0.01 | [11] -0.018 | [12] -0.031 | [13] -0.019 | [14] -0.042 | [15] 0.009 | [16] -0.005 | [17] 0.007 | [18] 0.032 | [19] 0.017 | [20] 0.009

RPS10 (UniProt P46783)
inactive: [1] -0.029 | [2] 0.033 | [3] -0.005 | [4] -0.012 | [5] -0.038 | [6] 0.006 | [7] -0.043 | [8] -0.004 | [9] 0.018 | [10] 0.008 | [11] 0.023 | [12] -0.008 | [13] 0.001 | [14] -0.004 | [15] 0.002 | [16] -0.004 | [17] -0.05 | [18] -0.007 | [19] 0.006 | [20] 0.004

RPS27 (UniProt P42677)
inactive: [1] 0.043 | [2] 0.108 | [3] -0.059 | [4] -0.05 | [5] -0.035 | [6] -0.008 | [7] -0.046 | [8] 0.079 | [9] 0.045 | [10] 0.115 | [11] -0.011 | [12] 0.013 | [13] 0.088 | [14] -0.011 | [15] 0.031 | [16] -0.007 | [17] -0.108 | [18] 0.011 | [19] -0.08 | [20] 0.05

Random excerpt: 2 entries already listed.
RPP21 isoform 4 (UniProt Q9H633)
inactive: [1] -0.049 | [2] 0.029 | [3] -0.063 | [4] 0.004 | [5] -0.032 | [6] 0.053 | [7] -0.064 | [8] 0.02 | [9] 0.017 | [10] -0.016 | [11] 0.018 | [12] -0.119 | [13] -0.018 | [14] 0.008 | [15] 0.056 | [16] 0.094 | [17] -0.03 | [18] 0.136 | [19] -0.055 | [20] -0.036

RRS1 (UniProt Q15050)
inactive: [1] -0.013 | [2] -0.103 | [3] -0.035 | [4] -0.016 | [5] -0.054 | [6] 0.007 | [7] 0.037 | [8] 0.034 | [9] -0.015 | [10] -0.01 | [11] -0.018 | [12] -0.031 | [13] -0.019 | [14] -0.042 | [15] 0.009 | [16] -0.005 | [17] 0.007 | [18] 0.032 | [19] 0.017 | [20] 0.009

Going on with the list.

RPS7 (UniProt P62081)
inactive: [1] -0.012 | [2] -0.119 | [3] 0.016 | [4] 0.008 | [5] -0.035 | [6] 0.013 | [7] -0.022 | [8] 0.024 | [9] -0.001 | [10] 0.003 | [11] 0.01 | [12] 0 | [13] -0.055 | [14] -0.003 | [15] 0.035 | [16] -0.009 | [17] -0.109 | [18] -0.036 | [19] 0.019 | [20] 0.018

RPS2 (UniProt P15880)
inactive: [1] 0.008 | [2] -0.032 | [3] -0.006 | [4] 0.003 | [5] -0.019 | [6] -0.004 | [7] 0.036 | [8] 0.002 | [9] -0.016 | [10] -0.005 | [11] -0.002 | [12] -0.014 | [13] -0.001 | [14] -0.018 | [15] 0.01 | [16] -0.025 | [17] -0.059 | [18] 0.003 | [19] 0.003 | [20] 0.033

RPL39P5 (UniProt Q59GN2)
inactive: [1] 0.065 | [2] -1.4 | [3] 0.027 | [4] 0.024 | [5] -0.012 | [6] -0.001 | [7] 0.023 | [8] 0.042 | [9] 0.009 | [10] 0.01 | [11] -0.021 | [12] -0.051 | [13] 0.017 | [14] -0.066 | [15] -0.049 | [16] 0.002 | [17] 0.01 | [18] 0 | [19] 0.001 | [20] 0.018

RRP1B (UniProt Q14684)
inactive: [1] 0.007 | [2] -0.097 | [3] -0.041 | [4] 0.044 | [5] 0.001 | [6] 0.003 | [7] -0.051 | [8] 0.013 | [9] 0.042 | [10] -0.028 | [11] 0.075 | [12] -0.019 | [13] 0.04 | [14] 0.022 | [15] 0.023 | [16] -0.008 | [17] -0.098 | [18] -0.033 | [19] 0.044 | [20] 0.025

RPL9 (UniProt P32969)
inactive: [1] 0.007 | [2] -0.069 | [3] 0 | [4] 0.021 | [5] -0.009 | [6] 0.019 | [7] -0.019 | [8] 0.008 | [9] -0.011 | [10] 0.006 | [11] -0.018 | [12] 0.007 | [13] 0.027 | [14] 0.007 | [15] 0.035 | [16] 0.01 | [17] -0.013 | [18] -0.008 | [19] 0.01 | [20] 0.017

RPL8 (UniProt P62917)
inactive: [1] 0.001 | [2] -0.307 | [3] -0.024 | [4] -0.025 | [5] -0.026 | [6] 0.007 | [7] 0.109 | [8] 0.019 | [9] -0.085 | [10] -0.005 | [11] 0.031 | [12] 0.007 | [13] 0.01 | [14] -0.002 | [15] -0.008 | [16] 0.012 | [17] -0.045 | [18] -0.076 | [19] -0.013 | [20] 0.011

S100A11 (UniProt P31949)
inactive: [1] 0.02 | [2] 0.034 | [3] 0.02 | [4] -0.008 | [5] -0.028 | [6] -0.009 | [7] -0.055 | [8] 0.071 | [9] 0.074 | [10] -0.025 | [11] -0.011 | [12] -0.049 | [13] -0.009 | [14] -0.017 | [15] -0.02 | [16] -0.024 | [17] 0.003 | [18] 0.058 | [19] 0.028 | [20] 0.037

RSPRY1 (UniProt Q96DX4)
inactive: [1] -0.024 | [2] 0.028 | [3] 0.032 | [4] -0.006 | [5] 0.022 | [6] -0.06 | [7] -0.032 | [8] 0.018 | [9] 0.014 | [10] 0.021 | [11] -0.052 | [12] 0.005 | [13] 0.029 | [14] -0.036 | [15] 0.042 | [16] 0.118 | [17] -0.022 | [18] 0.012 | [19] -0.017 | [20] 0.009

RPRD1B (UniProt Q9NQG5)
inactive: [1] -0.052 | [2] -0.039 | [3] -0.075 | [4] -0.017 | [5] 0.017 | [6] -0.017 | [7] 0.026 | [8] 0.008 | [9] 0.027 | [10] -0.034 | [11] -0.017 | [12] 0.026 | [13] 0.04 | [14] 0.07 | [15] -0.011 | [16] 0.043 | [17] 0.006 | [18] -0.055 | [19] -0.023 | [20] 0.005

RWDD4 (UniProt Q6NW29)
inactive: [1] -0.049 | [2] 0.03 | [3] -0.012 | [4] -0.064 | [5] -0.021 | [6] 0.003 | [7] 0.041 | [8] -0.036 | [9] -0.002 | [10] -0.016 | [11] -0.032 | [12] 0.015 | [13] -0.022 | [14] -0.013 | [15] -0.017 | [16] 0.047 | [17] -0.006 | [18] -0.028 | [19] 0.03 | [20] 0.011
